In this assay the target is Cav1.2, endogenous in mouse heart (mouse (endogenous in mouse heart)) (UniProt Q01815). Nature of the assay: co-IP; endogenous proteins from mouse left ventricles; Dynabeads with anti-Cav1.2 antibody, anti-V5 antibody as control; immunoblot with anti-Myoscape and anti-Cav1.2. Background: Immunoblotting shows a protein as a band on a membrane.

Sequences of proteins named here, by UniProt entry; tags and fusion partners are left off.
UniProt Q01815: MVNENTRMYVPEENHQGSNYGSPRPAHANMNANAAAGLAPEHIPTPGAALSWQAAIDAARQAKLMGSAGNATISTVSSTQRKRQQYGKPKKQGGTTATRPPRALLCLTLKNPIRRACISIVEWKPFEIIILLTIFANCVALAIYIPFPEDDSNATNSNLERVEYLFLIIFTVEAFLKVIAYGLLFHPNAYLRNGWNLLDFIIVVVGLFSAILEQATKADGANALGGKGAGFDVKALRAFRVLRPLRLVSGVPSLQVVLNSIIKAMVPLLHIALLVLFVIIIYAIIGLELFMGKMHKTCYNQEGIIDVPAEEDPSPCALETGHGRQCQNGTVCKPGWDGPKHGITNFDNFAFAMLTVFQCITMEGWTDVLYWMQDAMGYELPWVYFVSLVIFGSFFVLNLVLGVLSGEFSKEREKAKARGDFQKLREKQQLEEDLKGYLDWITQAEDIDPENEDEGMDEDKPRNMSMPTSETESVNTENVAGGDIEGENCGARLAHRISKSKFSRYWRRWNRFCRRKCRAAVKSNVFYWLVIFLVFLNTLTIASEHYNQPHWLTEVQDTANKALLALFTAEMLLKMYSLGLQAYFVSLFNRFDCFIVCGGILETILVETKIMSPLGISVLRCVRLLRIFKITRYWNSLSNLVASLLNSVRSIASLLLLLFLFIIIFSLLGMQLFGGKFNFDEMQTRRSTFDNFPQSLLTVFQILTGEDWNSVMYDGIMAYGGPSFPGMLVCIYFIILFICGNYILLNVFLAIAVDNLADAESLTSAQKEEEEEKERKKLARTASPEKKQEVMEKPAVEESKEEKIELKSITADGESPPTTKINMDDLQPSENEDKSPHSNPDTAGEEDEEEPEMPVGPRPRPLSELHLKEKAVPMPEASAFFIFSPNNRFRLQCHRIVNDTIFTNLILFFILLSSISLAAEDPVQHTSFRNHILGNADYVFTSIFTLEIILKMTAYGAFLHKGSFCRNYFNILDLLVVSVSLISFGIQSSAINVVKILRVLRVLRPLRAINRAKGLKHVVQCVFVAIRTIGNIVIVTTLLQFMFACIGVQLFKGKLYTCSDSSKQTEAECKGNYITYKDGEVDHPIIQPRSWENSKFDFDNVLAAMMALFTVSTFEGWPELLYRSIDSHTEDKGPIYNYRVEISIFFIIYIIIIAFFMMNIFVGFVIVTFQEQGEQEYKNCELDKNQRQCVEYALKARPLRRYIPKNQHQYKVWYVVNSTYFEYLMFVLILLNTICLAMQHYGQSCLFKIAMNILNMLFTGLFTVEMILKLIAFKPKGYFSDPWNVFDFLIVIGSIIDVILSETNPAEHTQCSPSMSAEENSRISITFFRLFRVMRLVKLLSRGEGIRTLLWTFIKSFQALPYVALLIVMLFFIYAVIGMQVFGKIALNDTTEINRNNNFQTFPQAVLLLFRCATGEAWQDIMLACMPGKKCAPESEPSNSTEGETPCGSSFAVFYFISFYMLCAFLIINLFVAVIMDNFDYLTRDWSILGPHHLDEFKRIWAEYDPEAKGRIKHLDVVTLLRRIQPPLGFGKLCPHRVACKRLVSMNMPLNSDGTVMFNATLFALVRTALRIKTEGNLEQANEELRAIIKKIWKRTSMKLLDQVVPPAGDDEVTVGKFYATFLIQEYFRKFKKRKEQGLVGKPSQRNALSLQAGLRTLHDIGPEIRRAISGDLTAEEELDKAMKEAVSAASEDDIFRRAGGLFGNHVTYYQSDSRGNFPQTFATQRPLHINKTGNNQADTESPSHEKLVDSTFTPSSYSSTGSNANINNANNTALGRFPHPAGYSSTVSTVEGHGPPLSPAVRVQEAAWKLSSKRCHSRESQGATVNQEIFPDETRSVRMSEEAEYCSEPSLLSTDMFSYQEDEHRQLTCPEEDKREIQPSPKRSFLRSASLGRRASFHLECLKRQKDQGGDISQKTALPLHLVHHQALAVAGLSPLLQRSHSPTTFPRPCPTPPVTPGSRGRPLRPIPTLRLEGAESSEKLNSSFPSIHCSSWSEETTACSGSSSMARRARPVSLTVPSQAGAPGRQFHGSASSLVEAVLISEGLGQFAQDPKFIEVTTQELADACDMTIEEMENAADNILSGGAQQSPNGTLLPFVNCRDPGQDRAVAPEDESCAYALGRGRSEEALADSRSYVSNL

These are yes or no findings as the source states them, for the method shown. Binding seen in cells or lysates may run through a third protein. Some entries that bind do so weakly or less than the wild type.

With “Myoscape, endogenous in mouse heart (from UniProt Q8C9H6-1 1-844)”, the binding result is “binds”.
